# Reference: article PMC3734113
# Chains of the proteins cited; added tags and fusions are not shown.
# UniProt P30281: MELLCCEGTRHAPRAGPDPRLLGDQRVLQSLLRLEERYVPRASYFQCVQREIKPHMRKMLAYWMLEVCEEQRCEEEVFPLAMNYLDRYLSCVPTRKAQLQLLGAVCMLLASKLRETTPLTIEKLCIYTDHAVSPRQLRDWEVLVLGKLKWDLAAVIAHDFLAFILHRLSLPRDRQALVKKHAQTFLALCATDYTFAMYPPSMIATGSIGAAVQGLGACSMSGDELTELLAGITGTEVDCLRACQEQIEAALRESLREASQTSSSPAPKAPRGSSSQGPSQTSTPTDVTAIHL
# UniProt P38936: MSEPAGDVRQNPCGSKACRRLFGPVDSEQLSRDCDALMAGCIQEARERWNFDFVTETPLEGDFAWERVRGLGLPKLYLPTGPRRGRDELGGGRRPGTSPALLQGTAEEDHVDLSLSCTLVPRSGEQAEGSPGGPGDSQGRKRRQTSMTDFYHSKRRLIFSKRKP
# These are yes or no findings as the source states them, for the method shown. In cells and extracts the contact can be indirect. Some results given as binding are weak or reduced against the parent protein; the word gives no strength.
# Target: cyclin D3 (UniProt P30281)
# Test: co-IP; CHO cells cotransfected with CDK4, cyclin D3, p21 (0.2 or 2 μg vector) and Tax-HA (WT, K346R or K346Q), in part with HDAC7-Flag (1 or 2 μg); lysates immunoprecipitated with anti-cyclin D3 mAb, Western blot with anti-cyclin D3, anti-CDK4, anti-p21 and anti-HA; lysis buffer 150 mM NaCl, 50 mM Tris-HCl pH 7.5, 0.5% Nonidet P-40; 4°C, 3 h
row,Substance,binding
1,p21^CIP (from UniProt P38936 1-164),binds
2,WT Tax-HA (from UniProt P03409 1-353),binds
